Source: PubChem BioAssay AID1259405 (NCATS, 2018)

- Aim: 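Mouse-designed siRNAs used to find CHO productivity engineering targets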 (primary screen)
- Cells: Chinese hamster CHO-K1 ovary cells with stable secreted eGFP expression
- Knock-down reagent: single siRNA against mouse genes, 0.8 pmol siRNA per well (2 µl of 400 nM stock)
- Duration: 3 days
- Measurement: 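Percent of the per-plate non-targeting control median for intracellular GFP per well by laser scanning cytometry and for cell viability by ATP luminescence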
- Scale: GFP, % of control: higher = more GFP per well, higher productivity; viability (ATP), % of control: higher = more viable cells (more ATP)
- Hit rule: 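Called active when intracellular GFP, relative to negative control, is at or above 120%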
Shown is an unselected part of about 50,000 deposited reagents. Of all reagents, about 4,000 (8%) are marked active. 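Mouse siRNA library applied to hamster cells; one well for each siRNA.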 The numbers tell different reagents against one gene apart.

Lhx5 #1 scored GFP, % of control 60.4; viability (ATP), % of control 64.3; inactive.
For Lhx5 #2, the values are GFP, % of control 60.7; viability (ATP), % of control 61.8; inactive.
Silencing of Lhx5 #3 resulted in: GFP, % of control 46.5; viability (ATP), % of control 79.5; inactive.
Silencing of Capn10 #1 gave: GFP, % of control 71.9; viability (ATP), % of control 68.8; inactive.
Capn10 #2 showed GFP, % of control 63.1; viability (ATP), % of control 73.4; inactive.
With knock-down of Capn10 #3 the results were GFP, % of control 115; viability (ATP), % of control 70.5; inactive.
Silencing of Usp5 #1 resulted in: GFP, % of control 74.5; viability (ATP), % of control 112; inactive.
Knock-down of Usp5 #2 gave: GFP, % of control 59.2; viability (ATP), % of control 64; inactive.
Knock-down of Usp5 #3 came out at: GFP, % of control 70.6; viability (ATP), % of control 67.6; inactive.
With knock-down of Whr1 #1, the screen gave GFP, % of control 52.7; viability (ATP), % of control 44.5; inactive.
With knock-down of Whr1 #2, the record shows GFP, % of control 125; viability (ATP), % of control 101; active.
Whr1 #3 showed GFP, % of control 136; viability (ATP), % of control 125; active.
After knock-down of Mok, the record shows GFP, % of control 55.5; viability (ATP), % of control 54.7; inactive.
For Vmn1r21 #1 the deposit lists GFP, % of control 76.4; viability (ATP), % of control 73.6; inactive.
Vmn1r21 #2 gave GFP, % of control 144; viability (ATP), % of control 82.5; active.
Knock-down of Vmn1r21 #3 gave: GFP, % of control 67.1; viability (ATP), % of control 82.8; inactive.
For Elavl4 #1, the entry reads GFP, % of control 49.7; viability (ATP), % of control 62.5; inactive.
Depletion of Elavl4 #2 came out at: GFP, % of control 59.5; viability (ATP), % of control 29; inactive.
Elavl4 #3 scored GFP, % of control 55.6; viability (ATP), % of control 48.2; inactive.
Smurf1 #1 gave GFP, % of control 92.7; viability (ATP), % of control 77.4; inactive.
Against Smurf1 #2 the deposit lists GFP, % of control 73.4; viability (ATP), % of control 86.3; inactive.
For Smurf1 #3 the deposit lists GFP, % of control 111; viability (ATP), % of control 103; inactive.
After knock-down of Usp48 #1, the record shows GFP, % of control 57.2; viability (ATP), % of control 38.6; inactive.
After knock-down of Usp48 #2, the record shows GFP, % of control 110; viability (ATP), % of control 80.4; inactive.
Against Usp48 #3, the values are GFP, % of control 102; viability (ATP), % of control 93.2; inactive.
P2rx1 #1 showed GFP, % of control 74.9; viability (ATP), % of control 95.7; inactive.
Against P2rx1 #2, the values are GFP, % of control 93.7; viability (ATP), % of control 82.7; inactive.
After knock-down of P2rx1 #3 the results were GFP, % of control 80.8; viability (ATP), % of control 85; inactive.
After knock-down of Pim1 the results were GFP, % of control 99.7; viability (ATP), % of control 79.6; inactive.
For Aqp9 #1, the entry reads GFP, % of control 188; viability (ATP), % of control 50.1; active.
For Aqp9 #2 the deposit lists GFP, % of control 70.8; viability (ATP), % of control 62; inactive.
After knock-down of Aqp9 #3, the screen gave GFP, % of control 102; viability (ATP), % of control 66.5; inactive.
After knock-down of Eda #1, the record shows GFP, % of control 76.2; viability (ATP), % of control 77.4; inactive.
Depletion of Eda #2 resulted in: GFP, % of control 92.5; viability (ATP), % of control 83.2; inactive.
With knock-down of Eda #3 the results were GFP, % of control 131; viability (ATP), % of control 60; active.
With knock-down of Ms4a5 #1, the record shows GFP, % of control 77.5; viability (ATP), % of control 81.6; inactive.
Depletion of Ms4a5 #2 resulted in: GFP, % of control 109; viability (ATP), % of control 81; inactive.
After knock-down of Ms4a5 #3, the record shows GFP, % of control 48.2; viability (ATP), % of control 41.9; inactive.
Vars2 #1 showed GFP, % of control 72.9; viability (ATP), % of control 28.3; inactive.
Against Vars2 #2, the values are GFP, % of control 84.2; viability (ATP), % of control 75; inactive.
Knock-down of Vars2 #3 came out at: GFP, % of control 70.6; viability (ATP), % of control 57.4; inactive.
For Stat2 #1, the entry reads GFP, % of control 78.6; viability (ATP), % of control 96.5; inactive.
For Stat2 #2, the entry reads GFP, % of control 69.6; viability (ATP), % of control 79.9; inactive.
With knock-down of Stat2 #3 the results were GFP, % of control 58; viability (ATP), % of control 101; inactive.
For Gpr75 #1, the entry reads GFP, % of control 159; viability (ATP), % of control 123; active.
Against Gpr75 #2, the entry reads GFP, % of control 64.9; viability (ATP), % of control 58.4; inactive.
Knock-down of Or8g17 #1 came out at: GFP, % of control 58.5; viability (ATP), % of control 70.1; inactive.
Or8g17 #2 showed GFP, % of control 139; viability (ATP), % of control 80.4; active.
For Or8g17 #3, the values are GFP, % of control 75; viability (ATP), % of control 105; inactive.
3010003L21Rik #1 scored GFP, % of control 62.7; viability (ATP), % of control 72.1; inactive.
3010003L21Rik #2 showed GFP, % of control 57.4; viability (ATP), % of control 67.5; inactive.
Against 3010003L21Rik #3 the deposit lists GFP, % of control 78.3; viability (ATP), % of control 78; inactive.

Ordered by “viability (ATP), % of control” (descending): 9 of the entries above
Smurf1 #3 → GFP, % of control = 111; viability (ATP), % of control = 103; call = inactive
P2rx1 #1 → GFP, % of control = 74.9; viability (ATP), % of control = 95.7; call = inactive
Usp48 #3 → GFP, % of control = 102; viability (ATP), % of control = 93.2; call = inactive
Smurf1 #2 → GFP, % of control = 73.4; viability (ATP), % of control = 86.3; call = inactive
P2rx1 #2 → GFP, % of control = 93.7; viability (ATP), % of control = 82.7; call = inactive
Usp48 #2 → GFP, % of control = 110; viability (ATP), % of control = 80.4; call = inactive
Smurf1 #1 → GFP, % of control = 92.7; viability (ATP), % of control = 77.4; call = inactive
Elavl4 #3 → GFP, % of control = 55.6; viability (ATP), % of control = 48.2; call = inactive
Usp48 #1 → GFP, % of control = 57.2; viability (ATP), % of control = 38.6; call = inactive
